# Literature values in patent publication US8017575B2 (priority 2004, dated 2011).
# Conditions: cats, not altered by reduced flow; cited from earlier work
compound,measurement,value
CCN(CC)CC(=O)Nc1c(C)cccc1C [lidocaine],extraction ratio,30%
